From PubChem BioAssay AID1347423 (Functional Genomics Laboratory (NCATS/FGL), 2020) come the findings set out here.

About 210 (0.4%) of roughly 52,000 sequences were called active.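 How the source made its calls: active means gene whose silencing raises cell survival under the drug, median off-target-corrected z-score across its silencing RNAs 2 or more; inactive means the rest.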 The list shows a part of the results.

The assay is described as follows: Resistance to Poly (ADP-Ribose) Polymerase inhibitor: Gene Identification via Genome-wide siRNA Screen. The note with it: mouse BRCA2 R2336H ES cells, olaparib, CellTiter-Glo viability; active compounds read high. A digest of the protocol: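 Mouse BRCA2 R2336H ES cells were reverse-transfected with siRNA (20 nM final), treated at 48 h with 500 nM olaparib, and read by CellTiter-Glo after 72 h. Scores: MAD-based z per siRNA, median per gene, seed off-target correction.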
For the sequence GGACUUUCGAGACAAGCUGTT against Barhl1, the z-score is inactive: -1.1.
For GGCAUUUAUGUCGAACAAGTT against Mbtd1, the z-score was inactive: -0.529.
The value for CGUUCACUUUUGAAAACGUTT against Bysl was inactive: -0.147; that for “GGGUUGUAGCAUUUAAUUATT against D17Ertd488e” was inactive: 0.139.
With GCUUAUCCUGGGAAACUUCTT against Fcnb the figure was inactive: 0.562.
As to GGAACUACCUUGUAAAAUUTT against Rbp7, the z-score was inactive: -1.25.
With GGUGUGCGCAGCAUCAAGATT against Guk1 the figure was inactive: 1.6; with “GGUAACCCUUACAGAUAUGTT against 4921507P07Rik”, inactive: -0.67.
The value for GCGUAUGCUUUUGUGCACATT against Anapc7 was inactive: 0.341; that for GCUUAUCCAGUGUAUUGUGTT against Amfr was inactive: -0.838; that for CGCCCUAUACCGAUACUUUTT against Kcnk5 was inactive: -0.0982.
The value for GGAUUUUAGUGAAUUCCAUTT against Asah1 was inactive: -0.732; that for “GCAUGCUGAGGGACACAGUTT against 1810055G02Rik” was inactive: -0.274.
GGCAAGAAAUUCUUCAGCATT against Siat8c: the z-score was inactive: 1.29.
With “GGAAGUAAAGGGAUUUAACTT against 1110054N06Rik” the figure was inactive: 0.25; with GCCUUGACAGAGGUAUUGATT against Ovgp1, inactive: -0.824; with GAAAAAUAUCCUGGCAGUGTT against Olfr824, inactive: -0.568.
With “CCAGCUAUACGAAGACUUCTT against 2810435D12Rik” the figure was inactive: 1.13; with GGUACUCCUCCAUUAUCACTT against Olfr631, inactive: -0.0173.
On to “GGUGUCGAUGUCCUUUAUGTT against B130055L09Rik”, for which the z-score was inactive: -0.122.
With GGUUCUCCUCCCAAAUUAGTT against Nptxr, the z-score is inactive: -0.127.
With GCUCCAUUUAUGCUCCCAGTT against Zfp71-rs1 the figure was inactive: 0.108; with “GGCCAAGUCUGGAAUCACUTT against D1Ertd396e”, inactive: -1.44.
The value for GGGCACUUAUUGCUACCUGTT against Wfs1 was inactive: 2.27.
The value for GGUUCUUAUUUCACUAUUCTT against Nmu was inactive: -0.386.
For GGAGAAGAUGAGAGAAUUUTT against Tph1, the z-score was inactive: 0.357.
With GGUCUGUAUGUCAUUUAUCTT against Ywhag the figure was inactive: -0.162; with GGAAUUCCAAUGUUACCAUTT against Mfi2, inactive: 1.28.
The value for “GGAUAACCAUAUACUUCUGTT against 1110006O24Rik” was inactive: 0.935; that for “GGUGUUACCCUCCUUAGAGTT against 5730494N06Rik” was inactive: -0.203.
For the sequence GGCACUUAUGACACCUACATT against Fkbp10, the z-score was inactive: -1.87.
Regarding GGCUUUUGAAAAUGACUACTT against Galnt5, the z-score is inactive: 0.266.
GGAAGUGGAGGAAAAGAAGTT against Pdcd7: the z-score was inactive: -0.748.
With GGCCCAAGAGAAUAUCCAGTT against MGC129481 the figure was inactive: 0.847; with “CCCAAUUUGGAGCUAUCAGTT against C130090K23Rik”, inactive: -1.41; with GGAACUGAUAGUAAUUGCCTT against Il7, inactive: -0.933.
With “GGACUAUGGGAUUUCAGUUTT against 5730420B22Rik” the figure was inactive: -1.15.
With CCUUUUUAUCGCUUUACUGTT against Scn10a the figure was inactive: 0.0445.
As for CCCACAGAUCAGAUGCAUCTT against Abhd6, the z-score was inactive: -0.0376.
The value for GCACGGAUGCAGUGAAUAGTT against MGC90611 was inactive: -3.31.
With GCGUGGUGAUAGAAGAUAUTT against Pcdhgb8 the figure was inactive: -1.91; with “GCUGACCAUGGAGUAUAACTT against D3Ertd789e”, inactive: 1.14; with GUCUUUUAUACUUUGGUGGTT against Olfr1255, inactive: 1.43.
With GCAGAGUAUUUGAUUCUUATT against BC022641 the figure was inactive: -1.24; with CCAUCUCCUUUUCAGGGUGTT against Olfr747, inactive: 0.591; with GGAAAGAGCAAACAGUUCCTT against Il1f6, inactive: -1.08.
In the case of CCGAGAUGCCAAUAAAUGATT against Tcl1, the z-score is inactive: -0.326.
For CCACACUGAGUUUUACUACTT against Il22ra1, the z-score is inactive: 0.355.
The value for “CGUAGACAUGGCCUUUUUUTT against B230399E16Rik” was inactive: -0.281; that for “CCAGGAUGAAAGGUCACACTT against 9130221D24Rik” was inactive: 1.5; that for GGCAUCACUGAUGAAUGAATT against Pacsin2 was active: -0.947.
The value for GGACCUUAGCUGCUCUAACTT against Bai3 was inactive: 0.191.
With CGUACAUUGCUCUUCUUUUTT against Atp2a3 the figure was inactive: 0.0305.
Take GGAGAUUGCCAAGCAUAAGTT against Pcyt2: the z-score is inactive: 0.258.
As to GGAUAGCUCUAUCAACUCUTT against Serpinb3b, the z-score is inactive: -0.56.
The value for GGAAUUGGUUCAGAAAUAUTT against Rtn4 was inactive: 1.9; that for GGCUGCUGAUGAAAUGACUTT against Guca2b was inactive: -0.727.
The value for GGUUUACACGGUGGUAGAUTT against Ap2s1 was inactive: 1.29.
With GGCCCUAGAUGAGCACAAATT against Kcnh3 the figure was inactive: -0.111; with “GGUGCUAAGUAUUCUUAUCTT against D19Ertd703e”, inactive: -0.251; with “CCCGCUCAAGAUCCUGUUUTT against 2310011J03Rik”, inactive: -1.85.
Take “GCUAGACUUGGAGAAUUAATT against E430034L04Rik”: the z-score is inactive: 0.913.
With GGAGGUGUAGAGAUGAAGCTT against Metapl1 the figure was inactive: 2.1; with GGAACAUGACUUUCUCUGUTT against BC021367, inactive: -0.951; with CCCGAUCAUGCAUAGCUGATT against Decr2, inactive: 0.796.
With “GGAAAGAUCGAGGAAGAUATT against 0610039D01Rik” the figure was inactive: -0.0138.
With GCUUCAUGCAAAAGUCACCTT against Prg3 the figure was inactive: 0.627; with “GGUCAAAACAUGUUGAAGGTT against B330016D10Rik”, inactive: 0.0542; with GCUAGGUCCCAAUUUUCACTT against Psg29, inactive: -1.21.
On to “GGCAGACUUCUACAAGGAATT against C230030N03Rik”, for which the z-score is inactive: -0.513.
The value for GGCUCACAAGGAAGAGAUCTT against Cstad was inactive: 0.371.
With GCAUGGAGAGAACCUGAAATT against Rnf36 the figure was inactive: -2.37; with CCUAGCAAAGCUGUUCCACTT against Vapa, inactive: 0.689.
With “GGAGCUUCUACAGUACGAGTT against 4930578I06Rik” the figure was inactive: 0.44; with CCUUCUACAAGUGGUGUUGTT against Actl7a, inactive: -0.0191; with GGCAAAUUUCACCAUCUUATT against Dsc3, inactive: 0.807.
Regarding “GCAUGACAUUCCGAAAACUTT against 4921517D22Rik”, the z-score was inactive: 1.08.
With “GGAGAAAAUUCAUACCCGATT against 0610009F02Rik” the figure was inactive: 0.703; with GGAGAUUGAGAACACAAGCTT against Hipk2, inactive: 1.43; with CGACUGGAAAAAGAUUGGGTT against Ttf1, inactive: -0.495.
With GGAGCAAUGUCAUCAGCACTT against Gpr124 the figure was inactive: 0.115.
As for GCAUGCAUGAUGGAUCUUCTT against Gabrb1, the z-score was inactive: -2.
With CCAAGUUUUUAUGCAGAUATT against Pip5k1a the figure was inactive: -1.31; with GGAGAAGAAACUGGUGAAGTT against Etfb, inactive: -1.69.
The value for GGACAGAAUUGAAAUGCCUTT against Ropn1l was inactive: 0.649; that for CCCUCUAUCACGGCUACUATT against Hspb2 was inactive: -2.53.
On to CGUUGUAUGCUAGUACUGATT against Olfr1501, for which the z-score was inactive: 0.456.
Take GCCGUGAUGCCUAAAAUGCTT against Olfr543: the z-score was inactive: 0.192.
With GGGAAAGAUAGUUAAUGGATT against Icam4 the figure was inactive: -0.514; with GGCAUUCAAAAGGUAAAAUTT against Grid2, active: 2.35; with “GGAAAAACGGGAUCUGCCATT against A530053G22Rik”, inactive: -0.307.
With CGCAUUCCUACCAAAAACCTT against Defb14 the figure was inactive: -0.0682.
With “GGAAGGUAUCUGAGGUCCGTT against 2810408A11Rik” the figure was inactive: -0.347; with UCAAUUUGACUGAUCUGCATT against Cyp2j11, inactive: 0.706; with GCUCCGGAAAGUAAGCAGATT against Tnfrsf26, inactive: -1.34.
As to GCAGCUGAGAGUGACAUCATT against Atp1a2, the z-score is inactive: -0.848.
For CCAGAUAAUGAACACUUUGTT against Wdr1, the z-score was inactive: -0.93.
The value for GCCAGAGUGUCGAAUAUCATT against Dll4 was inactive: 0.0472; that for GGGUUCAGGGUGGAAAAUGTT against Dntt was inactive: -1.63; that for “GGAUGAUCUUGGUGUACACTT against A830041P22Rik” was inactive: -1.99.
With GGAUUUAUGGAAAAUUGGUTT against Zik1, the z-score was inactive: -0.445.
The value for “CCUUCAAUCAUGUUCUAACTT against 6332401O19Rik” was inactive: 1.04.
With GCCAAUUGGAAACUGUGAGTT against Scmh1, the z-score was inactive: -1.52.
